Inconclusive results, whose numbers are uncertain, are shown with a selection of clear calls. A potency beside an inconclusive call is a rough fit, not a confirmed value. Calls of active or inactive are those of the source. The call rests on the fitted dose curve; in most records, active means well fitted cell-killing curve with a large enough effect; inconclusive means small, poorly fitted or top-dose-only effect, or effect the other way; inactive means no such curve, though single readings can be large or run the other way.
Assay: Quantitative High-Throughput drug screen in 47 multiple myeloma cell lines against the NCATS MIPE library collection: KMS27_JCRB cell viability assay (AID 1918970); further: nearly all actives have a fitted effect of over 30% in size
Settings: KMS27 myeloma cells, CellTiter-Glo ATP viability, 48 h; series mostly up to 45.8 µM
Source text: PI: Beverly A. Mock Ph.D.
Laboratory of Cancer Biology and Genetics,
Center for Cancer Research, National Cancer Institute,
National Institute of Health, Bethesda, Maryland
Drug resistance and disease progression are common in multiple myeloma (MM) patients, underscoring the need for new therapeutic combinations. […] We hypothesized that effective combinations would reduce MYC expression and enhance p16 activity. […] These preclinical data identify potentially useful drug combinations for evaluation in drug-resistant MM and reveal potential mechanisms of combined drug sensitivity.
Described herein is the primary MIPE qHTS used to cherrypick compounds. Validated compounds were then further tested for potential synergistic activiy.
[1] Peat TJ, Gaikwad SM, Dubois W, Gyabaah-Kessie N, Zhang S, Gorjifard S, Phyo Z, Andres M, Hughitt VK, Simpson RM, Miller MA, Girvin AT, Taylor A, Williams D, D'Antonio N, Zhang Y, Rajagopalan A, Flietner E, Wilson K, Zhang X, Shinn P, Klumpp-Thomas C, McKnight C, Itkin Z, Chen L, Kazandijian D, Zhang J, Michalowski AM, Simmons JK, Keats J, Thomas CJ, Mock BA. Drug combinations identified by high-throughput screening promote cell cycle transition and upregulate Smad pathways in myeloma. […] Epub 2023 Jun 24. PMID: 37356470; PMCID: PMC10408729.
SEQUENCE No. (e.g., 1, 2, 3, etc.); […] (e.g., Cells, Incubation, Reagent, etc.); VALUE and DESCRIPTION.
1; Cells; 5 uL; white, solid bottom 1536-well Greiner assay plate.
2; Compounds; 23 nL; Kalypsis pin tool (Wako USA) equipped with a 1536-well pin head to transfer to the assay plates.
3; Incubation; 48 hours; 37C incubation.
4; Reagent;5uL; CellTiter Glo (Promega).
5; Detector; 425V; Luminescence; Viewlux PerkinElmer.
NOTES (numbers refer to Sequence numbers above)
1. The cell-based screening methods employed in this study were like those previously published. Briefly, the corresponding myeloma cell lines were screened in 1,536-well plates with 500 cells, 5-uL per well for inhibition of cell viability (assessed by measuring ATP levels with CellTiterGlo).
2. NCATS MIPE 4.0 library of approved and investigational drugs were added using the Kalypsis pin tool. Wells treated with DMSO only for 100% viability and media only wells for 0% viability were used as controls.
3. The assay plates were covered and incubated for 48 hours in a 37C, 5% CO2 incubator with controlled humidity.
4. After 48 hours, CellTilter-GloTM luminescent substrate mix (Promega) reagent was added to the assay plate and plates we incubated for 5 min at room temperature.
5. Signal was measured as median relative luminescence units on a ViewLux (PerkinElmer) multiplate reader.
[1] Heske CM, Davis MI, Baumgart JT, Wilson K, Gormally MV, Chen L, Zhang X, Ceribelli M, Duveau DY, Guha R, Ferrer M, Arnaldez FI, Ji J, Tran HL, Zhang Y, Mendoza A, Helman LJ, Thomas CJ. Matrix Screen Identifies Synergistic Combination of PARP Inhibitors and Nicotinamide Phosphoribosyltransferase (NAMPT) Inhibitors in Ewing Sarcoma. Clin Cancer Res. 2017 Dec 1;23(23):7301-7311. doi: 10.1158/1078-0432.CCR-17-1121. Epub 2017 Sep 12. PMID: 28899971; PMCID: PMC6636827.
Potency means the concentration at half of the fitted maximal effect.

Structure (SMILES) | Potency
COc1c(C)c2c(c(O)c1CC=C(C)CCC(=O)O)C(=O)OC2 | inconclusive: 2.35 µM [cytotoxic, partial curve, poor fit]
COc1cc(Nc2ncc(F)c(Nc3ccc4c(n3)N(COP(=O)(O)O)C(=O)C(C)(C)O4)n2)cc(OC)c1OC | inconclusive: 5.26 µM [cytotoxic, full curve]
Cn1cnc([N+](=O)[O-])c1Sc1ncnc2nc[nH]c12 | inconclusive: 3.32 µM [cytotoxic, full curve]
OC1CCC(Nc2ncc3nc(Nc4c(F)cc(F)cc4F)n([C@@H]4CCOC4)c3n2)CC1 (stereo not given in full) | inconclusive: 10.5 µM [cytotoxic, partial curve]
CCOc1cc(C=C2C(=O)N(c3ccccc3)N=C2C)cc(Cl)c1OCC(=O)OC | inconclusive: 18.7 µM [cytotoxic, partial curve]
C[N+](C)([O-])CCNc1ccc(NCC[N+](C)(C)[O-])c2c1C(=O)c1c(O)ccc(O)c1C2=O | inactive
NCCCC(O)(P(=O)(O)O)P(=O)(O)O | inactive
CC(=O)OC[C@@H]1O[C@@H](n2ccc(=O)[nH]c2=O)[C@H](OC(C)=O)[C@H]1OC(C)=O | inactive
Nc1ccc(C(=O)Nc2cccc(-c3nc(N4CCOCC4)c4oc5ncccc5c4n3)c2)cn1 | active: 6.62 µM
CCCCc1nc2cc(C=CC(=O)NO)ccc2n1CCN(CC)CC | inconclusive: 0.0074 µM [cytotoxic, full curve, poor fit]
NC1(C(=O)N[C@@H](CCO)c2ccc(Cl)cc2)CCN(c2ncnc3[nH]ccc23)CC1 | inconclusive: 37.2 µM [rising, partial curve, poor fit]
O=C(c1cc(Cc2n[nH]c(=O)c3ccccc23)ccc1F)N1CCN(C(=O)C2CC2)CC1 | inconclusive: 33.2 µM [cytotoxic, single point]
CCn1cc(C(=O)O)c(=O)c2cc(F)c(N3CCN(C)CC3)cc21 | inactive
Cc1cc(NC(=O)Nc2ccc(N(C)C)cc2)c2cc(F)cc(F)c2n1 | inactive
Cc1cc([C@@H](C)Nc2ccccc2C(=O)O)c2nc(N3CCOCC3)cc(=O)n2c1 | active: 10.8 µM
COc1cc(Cl)cn2c(-c3cccc(NC4CNC4)n3)cnc12 | inconclusive: 11.8 µM [cytotoxic, partial curve]
Fc1cc(-c2cccc3ncc(-c4cnn(C5CCNCC5)c4)nc23)cc(F)c1CN1CCOCC1 | active: 8.33 µM
CC(C)C[C@H](NC(=O)[C@@H](O)[C@H](N)Cc1ccccc1)C(=O)O | inactive
Cc1cnc(Nc2ccc(F)cc2Cl)nc1-c1c[nH]c(C(=O)N[C@H](CO)c2cccc(Cl)c2)c1 | active: 6.62 µM
C1CCC(C(CC2CCCCN2)C2CCCCC2)CC1 (stereo not given) | active: 10.5 µM

Given with each value named: entries from further up
NCCCC(O)(P(=O)(O)O)P(=O)(O)O
  Potency: inactive
Cc1cc(NC(=O)Nc2ccc(N(C)C)cc2)c2cc(F)cc(F)c2n1
  Potency: inactive

The list continues.

Structure (SMILES) | Potency
CC(C)(C)NC(=O)[C@H]1CC[C@H]2[C@@H]3CC[C@H]4NC(=O)C=C[C@]4(C)[C@H]3CC[C@]12C | inconclusive: 2.96 µM [cytotoxic, partial curve]
CCCc1cc(C(N)=S)ccn1 | inactive
Nc1nc(N)c2nc(CNc3ccc(C(=O)NC(CCC(=O)O)C(=O)O)cc3)cnc2n1 (stereo not given) | inconclusive: 0.0296 µM [cytotoxic, full curve]
CCOC(=O)C1=C(C)NC2=C(C(=O)CC(C)(C)C2)C1c1ccc(-c2ccccc2)cc1 (stereo not given) | inconclusive: 11.8 µM [cytotoxic, single point]
NC[C@H](O)c1ccc(O)c(O)c1 | inactive
NNCCc1ccccc1 | inconclusive: 7.43 µM [cytotoxic, partial curve]
O=C(CCCCCCC(=O)Nc1ccc([C@H]2O[C@@H](CSc3nc(-c4ccccc4)c(-c4ccccc4)o3)C[C@@H](c3ccc(CO)cc3)O2)cc1)NO | inactive
CCC(C=C[C@@H]1OC(=O)C=C[C@H]1C)=C[C@H](C)CC=CC(C)=C[C@@H](C)C(=O)[C@@H](C)[C@H](O)[C@@H](C)CC(C)=CC(=O)O | active: 0.0098 µM
CC(=CC(=O)Nc1ccccc1C(=O)O)c1ccc2ccccc2c1 | inconclusive: 20.9 µM [cytotoxic, partial curve]
CCOC(=O)N1CCN([N+]([O-])=NOc2ccc([N+](=O)[O-])cc2C#N)CC1 | active: 0.372 µM
N#Cc1c(O)c2c(-c3ccc(-c4ccccc4O)cc3)csc2[nH]c1=O | inactive
CS(=O)(=O)c1ccc([C@@H](O)[C@@H](CO)NC(=O)C(Cl)Cl)cc1 | inactive
O[C@@H](CNC[C@H](O)[C@H]1CCc2cc(F)ccc2O1)[C@@H]1CCc2cc(F)ccc2O1 | inconclusive: 20.9 µM [cytotoxic, partial curve, poor fit]
CC1(C)C(N(O)C(=O)Nc2ccc(Cl)cc2)N(c2ccc(Cl)cc2)C(=O)N1CC(=O)NN=CC=Cc1ccc([N+](=O)[O-])o1 (stereo not given) | inactive
c1cc(CN2CCCNCCNCCCNCC2)ccc1CN1CCCNCCNCCCNCC1 | inactive
N=C(N)c1ccc(OCCCCCOc2ccc(C(=N)N)cc2)cc1 | inactive
COc1ccc(-c2cc3c(C)nc(N)nc3n(C3CCC(OCCO)CC3)c2=O)cn1 (stereo not given) | active: 0.0264 µM
C[C@H]1[C@H](O)O[C@@H]2O[C@@]3(C)CC[C@@H]4[C@H](C)CC[C@@H]1[C@@]24OO3 | active: 13.2 µM
O=C(O)CCNc1cc(N2CCc3ccccc3CC2)nc(-c2ccccn2)n1 | inconclusive: 2.64 µM [cytotoxic, partial curve, poor fit]
CO[C@@]12[C@H](COC(N)=O)C3=C(C(=O)C(C)=C(N)C3=O)N1C[C@@H]1N[C@@H]12 | inconclusive: 0.743 µM [cytotoxic, full curve, poor fit]

2 of the compounds above, as comma-separated lines.
Structure (SMILES),Potency
N=C(N)c1ccc(OCCCCCOc2ccc(C(=N)N)cc2)cc1,inactive
COc1ccc(-c2cc3c(C)nc(N)nc3n(C3CCC(OCCO)CC3)c2=O)cn1 (stereo not given),active: 0.0264 µM
